Test results: patent US20220153864A1
Results are given in words; binding and its absence hold for the method and conditions named. Some binding calls cover weakened binding; strength is not graded here. Tags and fused reporters may be left off the sequences shown.

Target: recombinant cynomolgus GPC3 (cyGPC3) (R&D Systems) (cynomolgus)
Test: ELISA, cyGPC3 coated, binder titrated to 100 nM, detection anti-human IgG Fc-HRP or anti-NGAL-HRP, signal normalized

- binding: binds
B1: GPC3 antibody as included in the fusion protein (SEQ ID NOs: 81 and 82) (antibody, human IgG4 S228P, kappa, F234A L235A, V domains shown)
VH: QVQLVQSGAEVKKPGASVKVSCKASGYTFTDYEMHWVRQAPGQGLEWMGALDPKTGDTAYSQKFKGRVTLTADKSTSTAYMELSSLTSEDTAVYYCTRFYSYTYWGQGTLVTLVS
VL: DVVMTQSPLSLPVTPGEPASISCRSSQSLVHSNRNTYLHWYLQKPGQSPQLLIYKVSNRFSGVPDRFSGSGSGTDFTLKISRVEAEDVGVYYCSQNTHVPPTFGQGTKLEIKR
